Laboratory results: PubChem BioAssay AID504774 (Drosophila RNAi Screening Center, 2011)
The screen tested about 23,000 reagents; below is a random part of those that have a named target and a result. 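Values are quantile-normalised luminescence on an arbitrary scale; higher means more cells surviving MMS.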 A plus sign joins genes that one reagent is predicted to hit. No sequences are given here.

Screen: 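Fly genes whose loss alters survival after alkylation damage to DNA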 (primary screen)
System: Drosophila Kc167 cells
Knock-down reagent: long dsRNA against Drosophila genes, about 0.25 µg dsRNA per well
Duration: about 6 days: 3 days knock-down, then 3 days with or without MMS
Conditions: methyl methanesulphonate 0.004% (w/v) for 3 days after knock-down
Detection: 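ATP-dependent luminescence as a measure of live cells in MMS-exposed wells, quantile normalised within each plate, with replicate values also given as a mean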
Direction: mean viability with MMS and viability with MMS: higher = more surviving cells after MMS

Gene	DRSC id	mean viability with MMS	viability with MMS, replicate 1	viability with MMS, replicate 2
Trpgamma	DRSC03626	3.52e6	3.97e6	4.03e6
eIF2D	DRSC13916	3.59e6	3.99e6	4.16e6
CG13305	DRSC09975	3.27e6	3.61e6	3.68e6
nol	DRSC21425	3.53e6	4.05e6	3.98e6
CG2006 + Spase12	DRSC14316	3.71e6	4.11e6	4.26e6
CG7453	DRSC20046	3.56e6	4.15e6	3.91e6
CG11777	DRSC06081	3.60e6	4.08e6	4.03e6
hpRNA:CR32207	DRSC09616	3.49e6	3.98e6	3.95e6
CG13193	DRSC06318	3.50e6	3.91e6	3.99e6
CG10959	DRSC17769	3.04e6	3.81e6	4.31e6
CG17030	DRSC08503	3.60e6	4.27e6	3.91e6
CG16976 (retired record)	DRSC08499	3.45e6	3.99e6	3.85e6
CtsL1	DRSC05462	3.44e6	4.01e6	3.87e6
CtsL1	DRSC07363	3.58e6	4.16e6	3.95e6
Cand1	DRSC01992	3.58e6	4.15e6	3.99e6
Tailor	DRSC12526	3.49e6	4.02e6	3.93e6
CG15432	DRSC00447	3.25e6	3.61e6	3.62e6
Fdx1	DRSC11167	3.67e6	4.30e6	3.97e6
Gat	DRSC17144	3.65e6	4.19e6	4.08e6
Cyp6a23	DRSC07383	3.68e6	4.06e6	3.98e6
CG6675	DRSC03735	3.66e6	4.17e6	4.13e6
obst-F	DRSC10805	3.34e6	3.74e6	3.77e6
strat	DRSC03069	3.55e6	4.25e6	3.80e6

8 entries already listed, arranged by “viability with MMS, replicate 1”, high to low:
Gene	DRSC id	mean viability with MMS	viability with MMS, replicate 1	viability with MMS, replicate 2
Fdx1	DRSC11167	3.67e6	4.30e6	3.97e6
strat	DRSC03069	3.55e6	4.25e6	3.80e6
Gat	DRSC17144	3.65e6	4.19e6	4.08e6
CG6675	DRSC03735	3.66e6	4.17e6	4.13e6
Cyp6a23	DRSC07383	3.68e6	4.06e6	3.98e6
Tailor	DRSC12526	3.49e6	4.02e6	3.93e6
obst-F	DRSC10805	3.34e6	3.74e6	3.77e6
CG15432	DRSC00447	3.25e6	3.61e6	3.62e6

Next records follow:
Gene	DRSC id	mean viability with MMS	viability with MMS, replicate 1	viability with MMS, replicate 2
CG17650	DRSC00510	3.37e6	3.79e6	3.77e6
Pi3K59F	DRSC04640	3.67e6	4.22e6	4.14e6
CG14369	DRSC14831	3.69e6	4.10e6	4.29e6
CG8939	DRSC20127	3.39e6	3.82e6	3.78e6
Lip4	DRSC02930	3.49e6	3.93e6	4.00e6
bun	DRSC01253	3.35e6	3.60e6	3.96e6
bun	DRSC01255	3.20e6	3.61e6	3.63e6
bun	DRSC03500	2.82e6	3.17e6	3.07e6
bun	DRSC23041	3.25e6	3.60e6	3.75e6
Pat1	DRSC17750	3.44e6	3.88e6	3.83e6
CG10068	DRSC12508	3.54e6	4.00e6	4.03e6
Pcyt1	DRSC08157	3.61e6	4.11e6	4.09e6
CG44433	DRSC06517	3.57e6	4.18e6	3.90e6
CG44433	DRSC06518	3.42e6	3.83e6	3.89e6
CCHa1	DRSC14821	3.21e6	3.57e6	3.71e6
CG32544	DRSC20033	3.57e6	4.15e6	3.94e6
GCS2alpha	DRSC21036	3.76e6	4.20e6	4.20e6
prom	DRSC04684	3.54e6	4.02e6	4.02e6
prom	DRSC21463	3.55e6	3.96e6	4.11e6
prom	DRSC22088	3.64e6	4.16e6	4.03e6
mthl9	DRSC08506	3.62e6	4.12e6	4.06e6
CG31955	DRSC00285	3.55e6	3.96e6	4.08e6
Cyp1	DRSC20234	3.54e6	4.08e6	3.86e6
